Data taken from patent US20030203372A1, “Analysis method” (priority 2000, published 2003).

System: primary human macrophages
Assay: Research Genetics Human GeneFilters arrays, hypoxia versus normoxia in resting and activated macrophages
Assay type: cell-based
Conditions: Table 7, mRNA expression in hypoxia relative to normoxia

Substance: Vascular endothelial growth factor
- RATIO Hypoxia/Normoxia (activated) (activated macrophages): 1.97
- RATIO Hypoxia/Normoxia (resting) (resting macrophages): 1.53
